# End groups of sequences in plain letters are not given here.
# Test: general procedure: peptide synthesis; chloro trityl chloride resin
# Conditions: whole synthesis
sequence,measurement,setting,value
GFYFNKAAGYGSSSRR,crude mass,,1.18 g
same,crude yield,scale of the general procedure 700 mg resin,69.6%

# From patent publication US8263095B2 (Caregen Co., Ltd., priority 2006, dated 2012)
